Melanoma cell counts after drug treatment

From a melanoma drug combination screen (doi:10.1371/journal.pone.0140310); values rounded.

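The test systems are human melanoma cell lines, treated with a pair of drugs for 72 h and then stained and imaged. The read-out is cell count (nuclei) in % of the DMSO control; lower values mean stronger growth inhibition or killing. Every drug was used at one fixed concentration, the lower of two screened (a fifth of the higher). These are primary screening values without error estimates.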 An unselected part of the screen is shown. An entry leaves out what has no value listed here. A dash means that no value is listed here.

Compounds and concentrations:
dasatinib: Cc1nc(Nc2ncc(C(=O)Nc3c(C)cccc3Cl)s2)cc(N2CCN(CCO)CC2)n1 at 4 nM
pazopanib: Cc1ccc(Nc2nccc(N(C)c3ccc4c(C)n(C)nc4c3)n2)cc1S(N)(=O)=O at 400 nM
tamatinib: COc1cc(Nc2ncc(F)c(Nc3ccc4c(n3)NC(=O)C(C)(C)O4)n2)cc(OC)c1OC at 400 nM
crizotinib: C[C@@H](Oc1cc(-c2cnn(C3CCNCC3)c2)cnc1N)c1c(Cl)ccc(F)c1Cl at 200 nM
MK-2206: NC1(c2ccc(-c3nc4ccn5c(=O)[nH]nc5c4cc3-c3ccccc3)cc2)CCC1 at 400 nM
XAV939: Oc1nc(-c2ccc(C(F)(F)F)cc2)nc2c1CSCC2 at 2000 nM
palbociclib: CC(=O)c1c(C)c2cnc(Nc3ccc(N4CCNCC4)cn3)nc2n(C2CCCC2)c1=O at 40 nM
cediranib: COc1cc2c(Oc3ccc4[nH]c(C)cc4c3F)ncnc2cc1OCCCN1CCCC1 at 400 nM
PF-562271: CN(c1ncccc1CNc1nc(Nc2ccc3c(c2)CC(=O)N3)ncc1C(F)(F)F)S(C)(=O)=O at 80 nM
KU-55933: O=c1cc(-c2cccc3c2Sc2ccccc2S3)oc(N2CCOCC2)c1 at 1000 nM
SNS-032: CC(C)(C)c1cnc(CSc2cnc(NC(=O)C3CCNCC3)s2)o1 at 10 nM
perifosine: CCCCCCCCCCCCCCCCCCOP(=O)([O-])OC1CC[N+](C)(C)CC1 at 400 nM
indole-3-carbinol: OCc1c[nH]c2ccccc12 at 800 nM
MK-1775: C=CCn1c(=O)c2cnc(Nc3ccc(N4CCN(C)CC4)cc3)nc2n1-c1cccc(C(C)(C)O)n1 at 20 nM
OSI-906: C[C@]1(O)C[C@@H](c2nc(-c3ccc4ccc(-c5ccccc5)nc4c3)c3c(N)nccn32)C1 at 400 nM
enzastaurin: Cn1cc(C2=C(c3cn(C4CCN(Cc5ccccn5)CC4)c4ccccc34)C(=O)NC2=O)c2ccccc21 at 800 nM
PLX4720: CCCS(=O)(=O)Nc1ccc(F)c(C(=O)c2c[nH]c3ncc(Cl)cc23)c1F at 80 nM
gemcitabine: Nc1ccn([C@@H]2O[C@H](CO)[C@@H](O)C2(F)F)c(=O)n1 at 0.4 nM
darinaparsin: C[As](C)SC[C@H](NC(=O)CC[C@H](N)C(=O)O)C(=O)NCC(=O)O at 400 nM
CP-690550: C[C@@H]1CCN(C(=O)CC#N)C[C@@H]1N(C)c1ncnc2[nH]ccc12 at 1000 nM

| # | Drugs | 501mel | A375 | IPC-298 |
|---|---|---|---|---|
| 1 | MK-1775 + pazopanib | - | 52.1 | - |
| 2 | gemcitabine + MK-1775 | - | 64.6 | 86.5 |
| 3 | CP-690550 + crizotinib | - | 99.9 | 106 |
| 4 | indole-3-carbinol + perifosine | - | 74.6 | 95.1 |
| 5 | dasatinib + SNS-032 | - | 76.7 | - |
| 6 | tamatinib + crizotinib | - | 73.9 | - |
| 7 | PF-562271 + gemcitabine | - | 84.9 | 93.1 |
| 8 | dasatinib + crizotinib | - | 90.6 | - |
| 9 | pazopanib + palbociclib | - | 59.7 | 74.7 |
| 10 | OSI-906 + darinaparsin | - | - | 90.7 |
| 11 | crizotinib + darinaparsin | - | 101 | 101 |
| 12 | MK-1775 + PF-562271 | - | 48.9 | - |
| 13 | MK-2206 + cediranib | - | 93.6 | - |
| 14 | KU-55933 + perifosine | 112 | - | 93.2 |
| 15 | MK-2206 + indole-3-carbinol | - | 91.8 | 89.7 |
| 16 | dasatinib + XAV939 | - | - | 95.1 |
| 17 | CP-690550 + gemcitabine | - | 96.9 | 96.8 |
| 18 | cediranib + gemcitabine | - | 73.2 | 97.5 |
| 19 | OSI-906 + enzastaurin | - | 127 | 106 |
| 20 | SNS-032 + MK-2206 | - | 85.6 | - |
| 21 | PLX4720 + CP-690550 | - | 67.3 | - |
| 22 | indole-3-carbinol + OSI-906 | - | 55.8 | 92.0 |
| 23 | indole-3-carbinol + crizotinib | - | 119 | 96.5 |
| 24 | crizotinib + SNS-032 | - | 87.1 | 107 |
| 25 | perifosine + crizotinib | - | 99.0 | 89.9 |

2 of the entries, repeated:

* pazopanib + palbociclib : A375: 59.7; IPC-298: 74.7
* OSI-906 + darinaparsin : IPC-298: 90.7